Results on 2 compounds are retold here after patent publication US20060216761A1, “Isolation material for hormone disrupting substance, method of concentrating and method of clean-up” (priority 2002, published 2006).

For data set [1], the system named is anti-resin component antibody. Description: Bisphenol A (BPA) addition/recovery experiment using non-woven fabric affinity column. To be noted: BPA added 10 ng (10 ng/l). In kind it is binding, rabbit.
The subject of another data set is anti-estrogen antibody. In words: Estrogen addition/recovery experiment using non-woven fabric estrogen affinity column. In kind it is binding, rabbit. As to conditions: for E2-T measured value: E2 1 ng/L, 300 ml to 2 ml; for E2 measured value: E2 3 ng/L, 100 ml to 2 ml.

On to `CC(C)(c1ccc(O)cc1)c1ccc(O)cc1` [Bisphenol A (BPA), Bisphenol A], for which the “concentration of BPA recovered” value in data set [1] (8 ml eluate) was 1.06 ng/mL. For the same compound, in data set [1] (non-woven fabric diameter 1.2 cm, 30 layers, antibody bound 3.4 mg), the “Amount of BPA recovered” value is on record as 8.5 ng.
As for `C[C@]12CC[C@@H]3c4ccc(O)cc4CC[C@H]3[C@@H]1CC[C@@H]2O` [17β-Estradiol (E2), 17β-Estradiol], the E2-T measured value with anti-estrogen antibody (diameter 0.8 cm, 20 layers) is under 0.05 µg/L; with anti-estrogen antibody (diameter 0.8 cm, 40 layers), 0.08 µg/L; in the data set on anti-estrogen antibody (diameter 0.8 cm, 60 layers) it was 0.09 µg/L; with anti-estrogen antibody (diameter 0.8 cm, 80 layers), 0.10 µg/L; with anti-estrogen antibody (diameter 1.2 cm, 10 layers), 0.05 µg/L; in the data set with anti-estrogen antibody (diameter 1.2 cm, 20 layers), 0.08 µg/L. Also, the E2-T measured value in the data set with anti-estrogen antibody (diameter 1.2 cm, 30 layers) is 0.10 µg/L; in the data set with anti-estrogen antibody (diameter 1.2 cm, 40 layers) it was 0.13 µg/L; in the data set with anti-estrogen antibody (diameter 2.6 cm, 3 layers), 0.06 µg/L; with anti-estrogen antibody (diameter 2.6 cm, 6 layers), 0.09 µg/L; with anti-estrogen antibody (diameter 2.6 cm, 9 layers), 0.12 µg/L; in the data set on anti-estrogen antibody (diameter 2.6 cm, 12 layers) it was 0.14 µg/L. The E2 measured value with anti-estrogen antibody (30 layers, density 30 g/m^2, graft ratio 145%) was found to be 0.073 µg/L; with anti-estrogen antibody (30 layers, density 30 g/m^2, graft ratio 207%) it was 0.153 µg/L; with anti-estrogen antibody (30 layers, density 65 g/m^2, graft ratio 47%) it was 0.089 µg/L; with anti-estrogen antibody (30 layers, density 65 g/m^2, graft ratio 97%), 0.091 µg/L; with anti-estrogen antibody (30 layers, density 65 g/m^2, graft ratio 154%), 0.095 µg/L; in the data set with anti-estrogen antibody (30 layers, density 100 g/m^2, graft ratio 58%), 0.117 µg/L. The E2 measured value with anti-estrogen antibody (30 layers, density 100 g/m^2, graft ratio 93%) came to 0.122 µg/L; with anti-estrogen antibody (30 layers, density 100 g/m^2, graft ratio 148%), 0.118 µg/L.
